# This is one part of the list. These are further read-outs of the screen, such as a control signal, another cell line or another target. No call is given for them. The list favours compounds with an active or inconclusive main result. Potencies come from curve fits of mixed quality, noted in brackets.
# Experiment: Cell signaling CRE-BLA (Fsk stim)
# Conditions: CHO CRE-bla reporter (cAMP response element driving beta-lactamase), forskolin EC10, beta-lactamase ratio; measured here: 460 nm blue channel
# In short: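 qHTS titration format; CRE-bla CHO reporter; stimulus EC10 NKH 477, a water-soluble forskolin. Read: CCF4 460/530 nm ratio. Potency expressed as AC50 for activators or inhibitors.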
row,Compound,AC50
1,CC(C)CN(CC(C)C)c1nc(N)c(C#N)c(CC#N)c1C#N,"20 µM [rising, single point]"
2,Cc1ccccc1OCCn1nc(C(=O)O)c2ccccc2c1=O,"12.6 µM [rising, single point]"
3,C(=N\n1cnnc1)/c1cccc2ccccc12,"12.6 µM [rising, single point]"
4,Cc1cccc(N=c2oc3cc(O)ccc3cc2C(N)=O)c1,"10 µM [rising, partial curve]"
5,CCCc1nc(SCC(=O)N2CCCc3ccccc32)c2c(=O)n(C)c(=O)n(C)c2n1,"15.8 µM [falling, single point]"
6,Cc1ccc(OCc2nn3c(-c4n[nH]c5c4CCC5)nnc3s2)cc1,"25.1 µM [rising, single point]"
7,N#Cc1c2c(c(NCc3ccco3)n3c1nc1ccccc13)CCC2,"6.31 µM [rising, partial curve]"
8,COc1cc(-c2noc(CCCC(=O)NCc3ccco3)n2)cc(OC)c1OC,"20 µM [rising, single point]"
9,O=C1c2ccccc2C(=O)N1c1cccc(-c2nc3ccccc3o2)c1,"15.8 µM [rising, partial curve]"
10,CCOc1ccc(C2NC(=O)c3ccccc3O2)cc1 (centres undefined),"3.98 µM [rising, partial curve]"
11,O=C(Cn1nnc(-c2ccccc2)n1)OC1CCOC1=O (centres undefined),"5.01 µM [falling, single point]"
12,CCn1nnc(NC(=O)c2cccnc2)n1,"0.0398 µM [falling, full curve]"
13,CC(=O)c1c(C)cc(C)c(CSc2nnc(-c3ccco3)o2)c1C,"7.94 µM [rising, partial curve]"
14,CCc1nnc(NC(=O)c2ccc(OC)cc2OC)s1,"12.6 µM [rising, partial curve]"
15,CCOC(=O)Cc1nnc(NC(=O)C(CC)Sc2nnc3c4ccccc4n(C)c3n2)s1 (centres undefined),"5.01 µM [rising, partial curve]"
16,CCNc1ncc2nc(-c3cccs3)c(=O)n(-c3ccc(OC)cc3)c2n1,"2.51 µM [rising, full curve]"
17,Cc1[nH]c2ccccc2c1C(=O)CN1CCCC1,"20 µM [falling, single point]"
18,CCOCCCNC(=O)C(c1ccc(Cl)cc1)N1CCC2(CC1)OCCO2 (centres undefined),"20 µM [falling, partial curve]"
19,Cc1nc2c(ccc3nc(NC(=O)c4ccc5c(c4)OCCO5)sc32)s1,"25.1 µM [falling, single point]"
20,O=C(NCc1ccc2c(c1)OCO2)c1ccc(-c2ccc(Cl)cc2)o1,"2.51 µM [rising, partial curve, poor fit]"
21,COCCSc1ccccc1C(=O)Nc1nnc(COC)s1,"0.0501 µM [falling, full curve]"
22,O=C(OCCN1C(=O)c2ccccc2C1=O)C1CCN(S(=O)(=O)c2cccs2)CC1,"15.8 µM [rising, single point]"

row,Compound,AC50
1,Cc1noc(C)c1-c1nc(NCc2cccs2)c2ccccc2n1,"10 µM [rising, partial curve]"
2,CC(C)C[C@@H](CC(=O)N[C@@H](CCC(=O)O)CC(=O)O)NC(=O)[C@@H]1CNCC[C@H]1NC(=O)C[C@H](CCCN)NC(=O)C[C@H](Cc1ccccc1)NC(=O)[C@@H]1CCCC[C@H]1N,"10 µM [falling, full curve, poor fit]"
3,CC1CCc2sc3nc(N4CCN(CCO)CC4)n4ncnc4c3c2C1 (centres undefined),"12.6 µM [rising, partial curve]"
4,CC(=O)N(C)c1ccc(NC(=O)c2cnn(C)c2)cc1,"0.1 µM [falling, full curve, poor fit]"
5,CCc1nc(SCC(=O)Nc2cc(C)on2)c2c(=O)n(C)c(=O)n(C)c2n1,"5.01 µM [rising, partial curve]"
6,COCCN1Cc2cccc(C(=O)Nc3ccc(C)c(C)c3)c2C1=O,"0.251 µM [rising, full curve]"
7,COC(=O)c1sccc1NC(=O)c1ccoc1C,"10 µM [rising, partial curve]"
8,CC1(C)CC(=O)C=C(NCCCN2CCCC2=O)C1,"3.98 µM [falling, single point]"
9,CCCC(=O)N(c1ccc2oc(=O)sc2c1)S(=O)(=O)c1ccccc1,"5.01 µM [falling, partial curve, poor fit]"
10,CC(C)n1c(NCc2cc(Cl)ccc2O)nc2ccccc21,"25.1 µM [falling, single point]"
11,Cc1cnc(CNc2ccnc(-c3c(C)noc3C)n2)cn1,"10 µM [rising, partial curve]"
12,CCOc1ccccc1N1CCN(S(=O)(=O)c2ccc3c4c(cccc24)C(=O)N3)CC1,"12.6 µM [rising, single point]"
13,CC(CCc1ccco1)NC(=O)c1cc2c(-c3ccccc3F)nn(C)c2s1 (centres undefined),"2 µM [rising, partial curve]"
14,CN(C)c1ccc(-c2ccc3ncnc(NC4CC4)c3c2)cc1,"6.31 µM [rising, partial curve]"
15,COc1ccc(C(=O)OCCN=C2NS(=O)(=O)c3ccccc32)cc1OC,"12.6 µM [rising, single point]"
16,O=C(COc1cccc(OC(F)F)c1)Nc1ccc(SC(F)F)cc1,"5.01 µM [falling, partial curve]"
17,CCOC(=O)c1sc(NC(=O)CSc2ncn[nH]2)c(C#N)c1C,"12.6 µM [falling, single point]"
18,O=C1CCCC2=C1C1(CCCCC1)N=C(Nc1nc3ccccc3o1)N2,"2 µM [rising, full curve]"
19,CCNc1ncc2nc(-c3ccc(F)cc3)c(=O)n(C[C@H]3CCCO3)c2n1,"2 µM [rising, full curve]"
20,CCCS(=O)(=O)N1CCC(C(=O)N2CCN(C(=O)OCC)CC2)CC1,"25.1 µM [rising, single point]"
21,COc1cc(NC(=O)C2CC(c3cccc(OC)c3OC)=NO2)cc(OC)c1OC (centres undefined),"10 µM [rising, partial curve]"
22,CCOC(=O)Cc1c(C)nc2c(C#N)c(C)nn2c1C,"25.1 µM [rising, single point]"

# A draw from above in order of molar mass, smallest number first:
row,Compound,AC50
18,O=C1CCCC2=C1C1(CCCCC1)N=C(Nc1nc3ccccc3o1)N2,"2 µM [rising, full curve]"
5,CCc1nc(SCC(=O)Nc2cc(C)on2)c2c(=O)n(C)c(=O)n(C)c2n1,"5.01 µM [rising, partial curve]"
15,CCOC(=O)Cc1nnc(NC(=O)C(CC)Sc2nnc3c4ccccc4n(C)c3n2)s1 (centres undefined),"5.01 µM [rising, partial curve]"

# From PubChem BioAssay AID662 (National Center for Advancing Translational Sciences (NCATS), 2007)
